According to patent US7323496B2, “Compounds for treatment of inflammation, diabetes and related disorders” (Theracos, Inc., priority 1999, dated 2008):
At least one structure is not confirmed: it was looked up by name or label, or the drawing left a doubt.

Test system: DBA/1J mice
Test: Collagen-induced arthritis in mice
Assay type: in vivo, mouse
Conditions: positive control 5 mg/kg oral twice daily for 14 days

C[C@@H]1C[C@H]2[C@@H]3CCC4=CC(=O)C=C[C@]4(C)[C@@]3(F)[C@@H](O)C[C@]2(C)[C@@]1(O)C(=O)CO [dexamethasone, reference compound]
hind limb histology: within normal limits
